Data published in patent US9441014B2, “Skin permeating and cell entering (SPACE) peptides and methods of use thereof” (The Regents of the University of California, priority 2010, dated 2016).
Part of at least one peptide drawing is inferred or uncertain, most often the ends. Residues, ends and D or L forms follow the SMILES beside them.

Columns and labels:
[1] = test system: corneocyte proteins, most likely keratin; assay: Binding of fluorescently labeled peptide to delipidized stratum corneum; details: isolated human SC
[2] = test system: Human adult epidermal keratinocytes; assay: Penetration of fluorescent peptide into viable cells: keratinocytes; assay type: cell-based
[3] = test system: human skin fibroblasts; assay: Penetration of fluorescent peptide into viable cells: fibroblasts; assay type: cell-based
[4] = test system: human umbilical vein endothelial cells (HUVEC); assay: Penetration of fluorescent peptide into viable cells: HUVEC; assay type: cell-based
[5] = test system: MDA-MB-231 breast cancer cells; assay: Penetration of fluorescent peptide into viable cells: breast cancer cells; assay type: cell-based, human; details: 6 hours
[6] = test system: human keratinocytes; assay: Cell penetration mechanism studies with endocytosis inhibitors (flow cytometry); assay type: cell-based; details: for effect of chlorpromazine on cellular internalization: chlorpromazine 10 μg/mL; for reduction of internalization with deoxy-D-glucose: deoxy-D-glucose 5 mM; for effect of nystatin on cellular internalization: nystatin 25 μg/mL
[7] = test system: green fluorescent protein (GFP) in GFP-expressing endothelial cells; assay: GFP knockdown in GFP-expressing endothelial cells; assay type: cell-based; details: 1 μM siRNA, 48 hours
Description: GFP-expressing endothelial cells (ATCC) were grown in Dulbecco's Modified Eagle's Medium supplemented with 10% fetal bovine serum. GFP siRNA, 5′-GACGUAAACGGCCACAAGUUC N6-3′ (SEQ ID NO:26) (Dharmacon), was conjugated to fluorescently labeled peptide (containing a free carboxyl group) through EDC chemistry.
A 10 mM peptide solution was incubated with a 10 mM solution of N-(3-Dimethylaminopropyl)-N′-ethylcarbodiimide hydrochloride (EDAC, Sigma) and a 9.5 mM solution of N-Hydroxysulfosuccinimide sodium salt (NHS, Sigma) in equal parts in MES buffer (pH 5.5) for 15 minutes. The amine modified siRNA was then added to the mixture to conjugate the peptide to siRNA and allowed to mix overnight.
The peptide-siRNA complex was added to the appropriate cell culture media to obtain a final concentration of 1 μM siRNA. The media along with peptide-siRNA was then added to the cells and allowed to incubate for 48 hours. Cells were imaged using confocal microscopy and image analysis was performed using ImageJ to determine the overall fluorescence intensity for each cell.

[8] = average fluorescence intensity after 24 hours

Row | SMILES | binding to isolated stratum corneum [1] | penetration into cells ([2]; 24 hours, confocal) | extent of internalization [2, 8] | penetration into cells ([3]; 24 hours, confocal) | extent of internalization [3, 8] | penetration into cells ([4]; 24 hours, confocal) | extent of internalization [4, 8] | internalization in breast cancer cells [5] | reduction in internalization with EIPA ([6]; EIPA 100 μM) | effect of chlorpromazine on cellular internalization [6] | reduction of internalization with deoxy-D-glucose [6] [%] | uptake at 4° C. compared to that at 37° C. ([6]; incubation at 4° C., 3 hours with peptide) | effect of nystatin on cellular internalization [6] | knockdown of GFP [7] | effect of EIPA on internalization ([6]; EIPA 100 μM) | effect of incubation at 4° C. on internalization ([6]; incubation at 4° C.)
1 | C[C@H](N)C(=O)N[C@H]1CSSC[C@@H](C(=O)NCC(=O)O)NC(=O)[C@H](CCC(N)=O)NC(=O)[C@H](Cc2c[nH]cn2)NC(=O)[C@H](CCC(N)=O)NC(=O)[C@H]([C@@H](C)O)NC(=O)[C@H](CO)NC(=O)CNC(=O)[C@H]([C@@H](C)O)NC1=O [SPACE peptide] (HELM PEPTIDE1{A.C.T.G.S.T.Q.H.Q.C.G}$PEPTIDE1,PEPTIDE1,2:R3-10:R3$$$V2.0; N-terminus and C-terminus assumed) | binds to corneocyte proteins, most likely to keratin | Significant penetration | higher than that of control peptide | Significant penetration | higher than that of control peptide | Significant penetration | higher than that of control peptide | exhibited internalization | approximately 50% | Neither of them reduced | ~52 | about 5% | Neither of them reduced | no significant knockdown |  | 
2 | C[C@H](N)C(=O)N[C@H]1CSSC[C@@H](C(=O)NCC(=O)O)NC(=O)[C@H](CO)NC(=O)[C@H](CCC(N)=O)NC(=O)[C@H]([C@@H](C)O)NC(=O)[C@H](CCC(N)=O)NC(=O)CNC(=O)[C@H](Cc2c[nH]cn2)NC(=O)[C@H]([C@@H](C)O)NC1=O [control peptide, reference compound] (HELM PEPTIDE1{A.C.T.H.G.Q.T.Q.S.C.G}$PEPTIDE1,PEPTIDE1,2:R3-10:R3$$$V2.0; N-terminus and C-terminus assumed) |  |  |  |  |  |  |  |  |  | Neither of them reduced | ~52 |  | Neither of them reduced |  | no effect | significantly reduced internalization
